Data from PMC5930937.
No constants are given. Whether binding was seen depends on the method and setting. Binding seen in cells or lysates may run through a third protein. Some results given as binding are weak or reduced against the parent protein; the word gives no strength.

Amino acid sequences for entries named in this document (tags omitted). A change or cut given only in a name is not applied to a line headed by its entry. Chains listed by the source or under a name are the forms on record and can include a tag or linker.
UniProt O95180: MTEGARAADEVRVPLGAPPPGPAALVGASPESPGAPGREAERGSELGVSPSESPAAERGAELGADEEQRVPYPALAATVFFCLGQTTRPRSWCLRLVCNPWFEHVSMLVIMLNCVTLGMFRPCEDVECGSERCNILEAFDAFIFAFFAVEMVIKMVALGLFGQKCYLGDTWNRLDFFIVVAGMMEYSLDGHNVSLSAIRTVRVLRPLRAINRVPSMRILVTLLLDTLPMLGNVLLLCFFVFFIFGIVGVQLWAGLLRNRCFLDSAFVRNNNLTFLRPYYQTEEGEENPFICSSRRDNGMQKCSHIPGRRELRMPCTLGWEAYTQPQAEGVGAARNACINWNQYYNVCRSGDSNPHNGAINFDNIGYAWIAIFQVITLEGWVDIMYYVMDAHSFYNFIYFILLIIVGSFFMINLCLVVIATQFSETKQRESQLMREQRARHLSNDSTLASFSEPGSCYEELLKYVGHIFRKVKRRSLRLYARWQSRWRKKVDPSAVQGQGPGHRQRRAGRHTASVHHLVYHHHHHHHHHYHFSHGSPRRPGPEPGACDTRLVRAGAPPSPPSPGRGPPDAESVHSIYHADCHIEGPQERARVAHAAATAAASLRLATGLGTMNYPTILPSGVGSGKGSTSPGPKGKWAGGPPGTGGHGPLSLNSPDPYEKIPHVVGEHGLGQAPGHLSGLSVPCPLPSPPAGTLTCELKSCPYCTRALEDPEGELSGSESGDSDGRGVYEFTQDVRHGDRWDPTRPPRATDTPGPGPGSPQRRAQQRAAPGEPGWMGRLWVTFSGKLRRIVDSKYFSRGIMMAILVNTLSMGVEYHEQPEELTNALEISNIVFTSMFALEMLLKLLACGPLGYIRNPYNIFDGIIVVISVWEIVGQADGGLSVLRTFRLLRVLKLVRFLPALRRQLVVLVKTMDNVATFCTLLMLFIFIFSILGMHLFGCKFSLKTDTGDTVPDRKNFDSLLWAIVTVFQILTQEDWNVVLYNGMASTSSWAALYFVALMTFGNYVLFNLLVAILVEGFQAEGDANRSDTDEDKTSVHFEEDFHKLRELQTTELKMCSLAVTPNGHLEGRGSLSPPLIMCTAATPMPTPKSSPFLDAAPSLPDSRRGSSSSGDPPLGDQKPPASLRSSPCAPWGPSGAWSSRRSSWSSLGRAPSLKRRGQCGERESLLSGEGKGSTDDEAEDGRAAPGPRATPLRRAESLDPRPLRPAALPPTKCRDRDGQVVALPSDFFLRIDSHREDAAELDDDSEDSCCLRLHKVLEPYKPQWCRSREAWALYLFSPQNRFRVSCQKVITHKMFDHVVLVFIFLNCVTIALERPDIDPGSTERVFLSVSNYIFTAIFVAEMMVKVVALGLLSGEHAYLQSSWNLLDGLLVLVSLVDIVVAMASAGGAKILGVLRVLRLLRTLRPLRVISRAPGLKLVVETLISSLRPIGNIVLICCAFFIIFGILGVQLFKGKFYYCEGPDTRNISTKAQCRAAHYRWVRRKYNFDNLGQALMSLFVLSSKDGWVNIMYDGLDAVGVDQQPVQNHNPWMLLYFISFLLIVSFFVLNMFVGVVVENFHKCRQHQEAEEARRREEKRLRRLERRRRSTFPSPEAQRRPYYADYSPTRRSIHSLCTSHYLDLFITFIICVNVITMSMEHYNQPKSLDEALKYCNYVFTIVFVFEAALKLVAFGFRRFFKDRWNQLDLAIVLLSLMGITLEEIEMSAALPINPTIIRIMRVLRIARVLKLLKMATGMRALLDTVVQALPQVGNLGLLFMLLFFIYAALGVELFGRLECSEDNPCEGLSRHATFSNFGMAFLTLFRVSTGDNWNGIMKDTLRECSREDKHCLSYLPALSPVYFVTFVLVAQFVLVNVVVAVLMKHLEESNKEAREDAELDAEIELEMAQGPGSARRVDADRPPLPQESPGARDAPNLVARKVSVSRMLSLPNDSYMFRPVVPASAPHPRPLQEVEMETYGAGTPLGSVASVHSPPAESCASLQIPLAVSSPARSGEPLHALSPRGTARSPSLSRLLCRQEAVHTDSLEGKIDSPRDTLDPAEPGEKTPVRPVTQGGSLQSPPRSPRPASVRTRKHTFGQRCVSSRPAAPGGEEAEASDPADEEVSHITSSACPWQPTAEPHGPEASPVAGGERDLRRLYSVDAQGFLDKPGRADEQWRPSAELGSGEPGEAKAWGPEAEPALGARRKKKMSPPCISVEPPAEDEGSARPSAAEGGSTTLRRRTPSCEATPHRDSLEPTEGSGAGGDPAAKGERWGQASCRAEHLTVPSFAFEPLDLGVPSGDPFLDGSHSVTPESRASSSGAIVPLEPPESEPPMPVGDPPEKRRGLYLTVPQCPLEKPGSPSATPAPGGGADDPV
Cav3.2-GFP ∆CT (1860–1884) (O95180, form named): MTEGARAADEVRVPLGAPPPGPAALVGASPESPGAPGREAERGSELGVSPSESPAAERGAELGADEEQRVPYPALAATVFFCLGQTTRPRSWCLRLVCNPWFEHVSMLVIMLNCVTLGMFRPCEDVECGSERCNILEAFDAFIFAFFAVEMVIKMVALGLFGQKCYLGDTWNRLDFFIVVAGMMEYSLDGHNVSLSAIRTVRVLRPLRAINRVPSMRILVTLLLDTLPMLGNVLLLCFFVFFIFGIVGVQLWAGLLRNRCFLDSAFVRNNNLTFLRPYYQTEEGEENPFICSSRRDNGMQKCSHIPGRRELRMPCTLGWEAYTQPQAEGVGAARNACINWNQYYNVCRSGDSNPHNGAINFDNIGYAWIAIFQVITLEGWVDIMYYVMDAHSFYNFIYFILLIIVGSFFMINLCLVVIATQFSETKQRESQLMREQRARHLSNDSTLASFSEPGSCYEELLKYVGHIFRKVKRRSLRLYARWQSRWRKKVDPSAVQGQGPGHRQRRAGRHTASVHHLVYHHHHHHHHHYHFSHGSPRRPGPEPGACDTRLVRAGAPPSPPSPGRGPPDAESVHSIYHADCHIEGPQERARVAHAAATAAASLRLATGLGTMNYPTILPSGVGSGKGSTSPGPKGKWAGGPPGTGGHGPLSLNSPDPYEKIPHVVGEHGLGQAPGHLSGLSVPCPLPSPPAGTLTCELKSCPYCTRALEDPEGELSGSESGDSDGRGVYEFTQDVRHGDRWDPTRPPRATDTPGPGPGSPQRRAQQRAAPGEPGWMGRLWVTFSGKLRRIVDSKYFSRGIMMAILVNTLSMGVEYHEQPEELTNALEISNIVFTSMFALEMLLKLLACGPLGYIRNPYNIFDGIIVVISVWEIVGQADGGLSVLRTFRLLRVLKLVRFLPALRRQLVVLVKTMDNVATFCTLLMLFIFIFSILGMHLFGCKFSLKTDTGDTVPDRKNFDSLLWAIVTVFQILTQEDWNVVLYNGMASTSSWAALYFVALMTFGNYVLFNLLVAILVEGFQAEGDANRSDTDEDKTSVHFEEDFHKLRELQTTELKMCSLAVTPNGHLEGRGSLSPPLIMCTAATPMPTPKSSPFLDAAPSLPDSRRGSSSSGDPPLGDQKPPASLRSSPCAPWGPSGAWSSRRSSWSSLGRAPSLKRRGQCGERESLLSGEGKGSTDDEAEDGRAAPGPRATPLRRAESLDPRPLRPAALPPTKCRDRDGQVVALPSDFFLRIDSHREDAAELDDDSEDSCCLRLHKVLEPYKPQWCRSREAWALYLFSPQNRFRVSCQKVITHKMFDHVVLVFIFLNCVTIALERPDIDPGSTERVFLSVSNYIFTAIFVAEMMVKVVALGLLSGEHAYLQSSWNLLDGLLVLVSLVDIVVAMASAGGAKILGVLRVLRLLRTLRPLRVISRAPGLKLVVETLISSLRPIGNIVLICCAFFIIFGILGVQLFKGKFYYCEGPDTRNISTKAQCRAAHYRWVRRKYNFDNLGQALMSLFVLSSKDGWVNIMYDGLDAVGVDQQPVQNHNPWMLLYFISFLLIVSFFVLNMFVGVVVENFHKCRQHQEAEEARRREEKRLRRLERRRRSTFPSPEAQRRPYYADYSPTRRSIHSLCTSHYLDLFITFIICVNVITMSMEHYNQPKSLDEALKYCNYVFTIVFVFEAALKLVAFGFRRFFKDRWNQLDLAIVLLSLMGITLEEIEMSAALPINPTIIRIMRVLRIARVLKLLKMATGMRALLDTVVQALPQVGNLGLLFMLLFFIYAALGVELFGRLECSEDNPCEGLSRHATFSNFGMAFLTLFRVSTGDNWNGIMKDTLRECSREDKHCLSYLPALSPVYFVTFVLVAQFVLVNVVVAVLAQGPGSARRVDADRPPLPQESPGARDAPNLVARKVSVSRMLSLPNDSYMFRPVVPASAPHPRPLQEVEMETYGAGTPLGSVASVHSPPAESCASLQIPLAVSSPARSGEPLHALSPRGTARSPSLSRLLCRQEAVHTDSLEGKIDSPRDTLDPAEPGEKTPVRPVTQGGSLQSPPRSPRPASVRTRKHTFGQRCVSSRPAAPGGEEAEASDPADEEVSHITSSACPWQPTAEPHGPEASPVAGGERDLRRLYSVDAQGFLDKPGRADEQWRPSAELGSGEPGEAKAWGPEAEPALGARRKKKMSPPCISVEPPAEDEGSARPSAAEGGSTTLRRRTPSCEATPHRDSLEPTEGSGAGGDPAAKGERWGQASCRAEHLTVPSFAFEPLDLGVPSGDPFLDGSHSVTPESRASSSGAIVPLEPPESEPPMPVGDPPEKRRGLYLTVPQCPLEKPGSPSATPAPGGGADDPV

Key:
[1] = molecular target: Cav3.2 T-type calcium channel, mouse brain (mouse (endogenous in whole brain)) (UniProt O88427); test: co-IP; Cav3.1 or Cav3.2 immunoprecipitates from mouse whole brain lysates (modified RIPA buffer, Protein G/A beads, overnight 4 °C) probed for SPTAN1 by Western blot
[2] = molecular target: Cav3.2-GFP ∆CT (1860–1884) (human) (UniProt O95180); test: co-IP; anti-GFP immunoprecipitates of GFP-tagged channels expressed in tsA-201 cells (modified RIPA buffer, Protein G/A beads, overnight 4 °C) probed for endogenous spectrins or ankyrin B by Western blot
[3] = molecular target: Cav3.1-GFP ∆CT (1875–2377) (human) (UniProt O43497); test: as above
[4] = molecular target: Cav3.1-GFP wild type (human) (UniProt O43497); test: as above
[5] = molecular target: Cav3.1-GFP ∆CT (1851–1875) (human) (UniProt O43497); test: as above
[6] = molecular target: Cav3.2-GFP wild type (human) (UniProt O95180); test: as above

Measured: binding

spectrin-αII (SPTAN1), mouse brain (from UniProt P16546 1-2472)
binds: [1]

spectrin αII (SPTAN1), tsA-201 cells (from UniProt Q13813 1-2472)
not listed: [1]
binds: all other assays above

ankyrin B, tsA-201 cells (from UniProt Q01484 1-3957)
binds: [2] | [4] | [5] | [6]
